Drawing on article PMC6288840, this text covers binding for one molecule.

Amino acid sequences for entries named in this document (tags omitted).
UniProt P22147: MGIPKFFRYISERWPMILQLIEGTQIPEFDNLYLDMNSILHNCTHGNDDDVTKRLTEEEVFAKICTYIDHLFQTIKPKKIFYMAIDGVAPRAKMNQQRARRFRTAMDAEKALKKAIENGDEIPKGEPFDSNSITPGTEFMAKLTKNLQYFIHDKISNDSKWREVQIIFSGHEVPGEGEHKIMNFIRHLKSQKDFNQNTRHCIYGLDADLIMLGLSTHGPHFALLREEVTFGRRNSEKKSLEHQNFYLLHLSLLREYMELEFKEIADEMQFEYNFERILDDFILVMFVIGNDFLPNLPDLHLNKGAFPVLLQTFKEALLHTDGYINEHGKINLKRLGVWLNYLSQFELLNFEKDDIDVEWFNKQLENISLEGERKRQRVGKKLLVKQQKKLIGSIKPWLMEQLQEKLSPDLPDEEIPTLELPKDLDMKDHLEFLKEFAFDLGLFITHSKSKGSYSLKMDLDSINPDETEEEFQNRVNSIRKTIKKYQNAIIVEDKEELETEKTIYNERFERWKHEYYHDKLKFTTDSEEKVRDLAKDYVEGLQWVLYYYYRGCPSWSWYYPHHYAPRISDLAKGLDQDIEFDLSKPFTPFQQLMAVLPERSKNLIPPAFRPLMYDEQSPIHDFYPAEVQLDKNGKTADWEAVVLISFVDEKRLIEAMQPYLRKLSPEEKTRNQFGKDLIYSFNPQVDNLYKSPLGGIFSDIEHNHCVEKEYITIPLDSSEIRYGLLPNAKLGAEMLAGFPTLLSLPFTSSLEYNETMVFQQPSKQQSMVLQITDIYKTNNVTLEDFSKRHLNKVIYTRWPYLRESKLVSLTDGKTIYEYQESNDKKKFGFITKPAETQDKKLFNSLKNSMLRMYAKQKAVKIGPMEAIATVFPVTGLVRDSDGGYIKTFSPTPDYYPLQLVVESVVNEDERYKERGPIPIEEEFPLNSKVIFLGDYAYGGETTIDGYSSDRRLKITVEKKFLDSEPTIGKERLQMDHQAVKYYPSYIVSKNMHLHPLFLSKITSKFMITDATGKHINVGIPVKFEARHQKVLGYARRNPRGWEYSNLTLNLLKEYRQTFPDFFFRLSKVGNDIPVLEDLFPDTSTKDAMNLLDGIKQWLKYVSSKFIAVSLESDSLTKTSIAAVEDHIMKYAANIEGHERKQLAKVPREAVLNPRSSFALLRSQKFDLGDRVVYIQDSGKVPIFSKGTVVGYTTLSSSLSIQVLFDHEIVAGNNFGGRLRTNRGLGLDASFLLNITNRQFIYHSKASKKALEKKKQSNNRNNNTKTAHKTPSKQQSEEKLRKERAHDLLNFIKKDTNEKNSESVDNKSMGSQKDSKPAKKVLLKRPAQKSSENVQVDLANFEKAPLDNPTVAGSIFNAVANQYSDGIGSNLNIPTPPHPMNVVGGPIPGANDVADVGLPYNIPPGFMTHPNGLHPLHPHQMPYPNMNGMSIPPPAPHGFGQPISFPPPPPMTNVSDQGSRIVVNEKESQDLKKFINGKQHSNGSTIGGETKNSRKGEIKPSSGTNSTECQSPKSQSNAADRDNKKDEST

The test concerns the target Xrn1-Flag (S. cerevisiae) (UniProt P22147). Kind of test: co-IP; Xrn1-Flag immunoprecipitated with Flag antibodies from yeast cells that also carry a GFP-tagged partner; wild type or rad53 deletion cells, untreated or treated with 0.05% MMS for 3 hr.

No constants are given. Whether binding was seen depends on the method and setting. Binding seen in cells or lysates may run through a third protein. Some results given as binding are weak or reduced against the parent protein; the word gives no strength. Where a sequence is shown, tags or fusion partners need not be part of it.

B1: Ngr1-GFP (protein, UniProt P32831 1-672)
chain: MMSNVANASQRQENPYIIPLPPSSTVETSTEPPRTLWMGDLDPSFDEATIEEIWSKLDKKVIVKLIRAKKNLLIPCSSTSSSNNNTSEENAENQQSASNSTDQLDNSQMININGISFIDPSTTQLHHAGYCFVEFETQKDAKFALSLNATPLPNFYSPTTNSQTNPTFKRTFRLNWASGATLQSSIPSTPEFSLFVGDLSPTATEADLLSLFQTRFKSVKTVRVMTDPLTGSSRCFGFVRFGDEDERRRALIEMSGKWFQGRALRVAYATPRNNMMLQLQEQQQQQQQLQQQHQQLDQEDNNGPLLIKTANNLIQNNSNMLPLNALHNAPPMHLNEGGISNMRVNDSLPSNTYNTDPTNTTVFVGGLVPKTTEFQLRSLFKPFGPILNVRIPNGKNCGFVKFEKRIDAEASIQGLQGFIVGGSPIRLSWGRPSSSNAKTNSTIMGASQYMSSNGLRAPSAASSVDNSKQILEQYAEDKRRLFLHQQQQQQQQQQQDGNFSMEQMAHNNYYNYNNYDYHRNKNGSHSDLVNLQRSNVPYMQEDGALYPHQYSSPSYSLHPTGNQFSNATNNLPQFGNAMSISMQLPNGNSNKTASSMNTNPNTNMIMNSNMNMNMNVNPVPYGMGNGANMYDVSRMMTPPLNIAPNSNNSKSSIMNKHPNRNNVPPIHPSLLH
B1: the binding result is listed as “binds”.
